This is one part of the list. Most entries show no effect beyond the scatter of the controls.

Sequences of proteins named here, by UniProt entry; tags and fusion partners are left off. A change or cut given only in a name is not applied to a line headed by its entry.
UniProt Q5JSL3: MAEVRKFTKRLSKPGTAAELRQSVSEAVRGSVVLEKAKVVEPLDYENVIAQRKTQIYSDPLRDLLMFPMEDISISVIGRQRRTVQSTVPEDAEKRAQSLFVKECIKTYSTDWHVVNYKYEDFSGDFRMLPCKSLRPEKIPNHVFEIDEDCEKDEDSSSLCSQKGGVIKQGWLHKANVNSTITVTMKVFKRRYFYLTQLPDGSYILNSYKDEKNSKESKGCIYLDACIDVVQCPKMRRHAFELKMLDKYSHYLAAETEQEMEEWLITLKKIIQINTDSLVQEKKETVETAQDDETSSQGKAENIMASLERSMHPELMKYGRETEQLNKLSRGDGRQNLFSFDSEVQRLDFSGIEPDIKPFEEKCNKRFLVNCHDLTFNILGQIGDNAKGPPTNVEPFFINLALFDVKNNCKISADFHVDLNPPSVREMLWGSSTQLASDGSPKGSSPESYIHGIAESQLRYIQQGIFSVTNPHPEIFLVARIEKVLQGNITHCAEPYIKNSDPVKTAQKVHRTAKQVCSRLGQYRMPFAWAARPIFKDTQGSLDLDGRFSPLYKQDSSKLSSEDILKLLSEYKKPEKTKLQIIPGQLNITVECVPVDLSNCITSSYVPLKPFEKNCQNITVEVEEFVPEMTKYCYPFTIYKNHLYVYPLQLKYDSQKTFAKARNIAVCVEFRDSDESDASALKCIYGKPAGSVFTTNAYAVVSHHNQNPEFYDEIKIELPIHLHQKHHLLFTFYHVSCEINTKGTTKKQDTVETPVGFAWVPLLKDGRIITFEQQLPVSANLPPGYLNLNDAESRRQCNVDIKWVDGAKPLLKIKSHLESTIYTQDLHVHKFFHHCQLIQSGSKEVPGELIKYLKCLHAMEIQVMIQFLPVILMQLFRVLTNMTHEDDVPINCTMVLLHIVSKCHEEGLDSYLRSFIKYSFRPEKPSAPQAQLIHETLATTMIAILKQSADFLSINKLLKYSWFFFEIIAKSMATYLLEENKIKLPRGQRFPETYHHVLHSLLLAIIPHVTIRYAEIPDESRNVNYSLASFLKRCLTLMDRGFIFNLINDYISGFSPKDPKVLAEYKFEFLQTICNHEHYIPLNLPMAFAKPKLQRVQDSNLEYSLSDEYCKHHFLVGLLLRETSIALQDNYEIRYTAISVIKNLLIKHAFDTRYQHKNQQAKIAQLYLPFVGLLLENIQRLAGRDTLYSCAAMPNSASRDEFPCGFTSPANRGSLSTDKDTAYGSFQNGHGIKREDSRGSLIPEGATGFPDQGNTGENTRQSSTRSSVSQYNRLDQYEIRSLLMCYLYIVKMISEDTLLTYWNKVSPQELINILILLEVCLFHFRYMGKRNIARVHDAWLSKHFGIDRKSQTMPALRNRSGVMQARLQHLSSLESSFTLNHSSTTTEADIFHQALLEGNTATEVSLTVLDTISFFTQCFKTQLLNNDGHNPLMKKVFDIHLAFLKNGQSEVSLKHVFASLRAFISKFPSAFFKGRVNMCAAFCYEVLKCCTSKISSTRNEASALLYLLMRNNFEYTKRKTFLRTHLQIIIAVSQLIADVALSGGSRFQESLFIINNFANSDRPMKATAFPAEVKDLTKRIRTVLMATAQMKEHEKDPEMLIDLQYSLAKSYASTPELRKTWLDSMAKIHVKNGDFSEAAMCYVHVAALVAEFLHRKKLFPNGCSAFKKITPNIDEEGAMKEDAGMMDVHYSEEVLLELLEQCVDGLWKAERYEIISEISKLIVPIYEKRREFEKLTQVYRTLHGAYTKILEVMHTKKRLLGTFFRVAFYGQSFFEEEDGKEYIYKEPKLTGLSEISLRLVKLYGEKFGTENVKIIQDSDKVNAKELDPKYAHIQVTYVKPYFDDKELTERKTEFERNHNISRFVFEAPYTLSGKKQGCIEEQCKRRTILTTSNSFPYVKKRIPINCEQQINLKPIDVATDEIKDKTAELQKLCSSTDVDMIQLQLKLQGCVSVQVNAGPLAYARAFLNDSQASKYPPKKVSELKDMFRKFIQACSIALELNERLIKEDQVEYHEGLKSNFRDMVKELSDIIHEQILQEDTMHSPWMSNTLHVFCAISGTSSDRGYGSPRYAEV
UniProt Q5JRX3: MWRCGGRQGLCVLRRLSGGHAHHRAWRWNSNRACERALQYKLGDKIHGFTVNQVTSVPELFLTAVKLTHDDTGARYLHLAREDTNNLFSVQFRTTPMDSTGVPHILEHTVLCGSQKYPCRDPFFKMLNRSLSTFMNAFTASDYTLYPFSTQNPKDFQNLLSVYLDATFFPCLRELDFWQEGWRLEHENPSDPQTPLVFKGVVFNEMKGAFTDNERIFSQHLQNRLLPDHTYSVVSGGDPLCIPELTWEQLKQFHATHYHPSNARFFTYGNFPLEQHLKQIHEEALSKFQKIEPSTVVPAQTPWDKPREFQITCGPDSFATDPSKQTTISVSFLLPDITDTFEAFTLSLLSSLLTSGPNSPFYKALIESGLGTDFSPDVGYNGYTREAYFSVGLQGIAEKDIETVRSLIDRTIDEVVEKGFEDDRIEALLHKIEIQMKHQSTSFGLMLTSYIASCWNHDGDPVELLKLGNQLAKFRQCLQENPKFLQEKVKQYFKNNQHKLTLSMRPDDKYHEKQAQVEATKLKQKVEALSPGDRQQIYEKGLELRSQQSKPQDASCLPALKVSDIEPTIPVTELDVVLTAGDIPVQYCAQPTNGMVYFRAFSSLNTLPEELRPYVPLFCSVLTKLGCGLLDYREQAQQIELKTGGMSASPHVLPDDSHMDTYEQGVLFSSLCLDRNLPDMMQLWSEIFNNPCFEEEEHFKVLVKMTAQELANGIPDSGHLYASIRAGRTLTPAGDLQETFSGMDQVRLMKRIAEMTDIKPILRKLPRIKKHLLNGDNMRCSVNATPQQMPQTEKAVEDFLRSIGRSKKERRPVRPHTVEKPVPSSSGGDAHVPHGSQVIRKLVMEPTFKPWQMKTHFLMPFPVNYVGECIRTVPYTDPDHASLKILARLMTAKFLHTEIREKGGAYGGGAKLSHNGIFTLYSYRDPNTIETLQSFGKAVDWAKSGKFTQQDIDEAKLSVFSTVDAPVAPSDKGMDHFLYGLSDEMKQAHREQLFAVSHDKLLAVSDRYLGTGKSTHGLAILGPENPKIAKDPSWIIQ
UniProt Q5T3I0: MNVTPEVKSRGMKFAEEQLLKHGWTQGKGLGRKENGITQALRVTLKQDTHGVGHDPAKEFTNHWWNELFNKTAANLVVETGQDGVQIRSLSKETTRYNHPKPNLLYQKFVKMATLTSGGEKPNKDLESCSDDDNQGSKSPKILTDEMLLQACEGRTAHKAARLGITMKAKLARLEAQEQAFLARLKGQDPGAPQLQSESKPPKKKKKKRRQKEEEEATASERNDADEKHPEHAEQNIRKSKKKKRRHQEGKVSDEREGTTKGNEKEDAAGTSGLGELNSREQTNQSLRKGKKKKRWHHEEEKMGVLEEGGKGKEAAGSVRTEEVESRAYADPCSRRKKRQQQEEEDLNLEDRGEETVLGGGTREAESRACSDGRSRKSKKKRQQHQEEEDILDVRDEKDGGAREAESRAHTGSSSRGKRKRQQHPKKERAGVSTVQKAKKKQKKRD
UniProt Q53EQ6: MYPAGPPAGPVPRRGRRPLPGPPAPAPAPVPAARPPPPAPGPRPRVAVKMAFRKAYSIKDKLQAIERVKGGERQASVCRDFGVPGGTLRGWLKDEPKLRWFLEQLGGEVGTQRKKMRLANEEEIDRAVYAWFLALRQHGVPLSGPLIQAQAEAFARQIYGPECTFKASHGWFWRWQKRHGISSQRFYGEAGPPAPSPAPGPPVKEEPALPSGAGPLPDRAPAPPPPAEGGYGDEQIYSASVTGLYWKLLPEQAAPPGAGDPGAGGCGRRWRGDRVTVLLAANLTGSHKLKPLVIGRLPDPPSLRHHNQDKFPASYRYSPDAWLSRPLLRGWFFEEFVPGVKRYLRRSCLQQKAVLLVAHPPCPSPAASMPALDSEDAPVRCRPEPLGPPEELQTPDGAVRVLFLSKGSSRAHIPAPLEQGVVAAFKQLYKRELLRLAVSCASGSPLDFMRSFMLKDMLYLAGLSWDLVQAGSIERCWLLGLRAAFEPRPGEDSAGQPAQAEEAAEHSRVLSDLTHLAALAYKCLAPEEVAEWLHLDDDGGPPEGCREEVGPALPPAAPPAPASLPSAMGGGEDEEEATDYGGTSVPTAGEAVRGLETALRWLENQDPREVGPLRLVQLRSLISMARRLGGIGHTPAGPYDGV
UniProt Q53TQ3, whole entry: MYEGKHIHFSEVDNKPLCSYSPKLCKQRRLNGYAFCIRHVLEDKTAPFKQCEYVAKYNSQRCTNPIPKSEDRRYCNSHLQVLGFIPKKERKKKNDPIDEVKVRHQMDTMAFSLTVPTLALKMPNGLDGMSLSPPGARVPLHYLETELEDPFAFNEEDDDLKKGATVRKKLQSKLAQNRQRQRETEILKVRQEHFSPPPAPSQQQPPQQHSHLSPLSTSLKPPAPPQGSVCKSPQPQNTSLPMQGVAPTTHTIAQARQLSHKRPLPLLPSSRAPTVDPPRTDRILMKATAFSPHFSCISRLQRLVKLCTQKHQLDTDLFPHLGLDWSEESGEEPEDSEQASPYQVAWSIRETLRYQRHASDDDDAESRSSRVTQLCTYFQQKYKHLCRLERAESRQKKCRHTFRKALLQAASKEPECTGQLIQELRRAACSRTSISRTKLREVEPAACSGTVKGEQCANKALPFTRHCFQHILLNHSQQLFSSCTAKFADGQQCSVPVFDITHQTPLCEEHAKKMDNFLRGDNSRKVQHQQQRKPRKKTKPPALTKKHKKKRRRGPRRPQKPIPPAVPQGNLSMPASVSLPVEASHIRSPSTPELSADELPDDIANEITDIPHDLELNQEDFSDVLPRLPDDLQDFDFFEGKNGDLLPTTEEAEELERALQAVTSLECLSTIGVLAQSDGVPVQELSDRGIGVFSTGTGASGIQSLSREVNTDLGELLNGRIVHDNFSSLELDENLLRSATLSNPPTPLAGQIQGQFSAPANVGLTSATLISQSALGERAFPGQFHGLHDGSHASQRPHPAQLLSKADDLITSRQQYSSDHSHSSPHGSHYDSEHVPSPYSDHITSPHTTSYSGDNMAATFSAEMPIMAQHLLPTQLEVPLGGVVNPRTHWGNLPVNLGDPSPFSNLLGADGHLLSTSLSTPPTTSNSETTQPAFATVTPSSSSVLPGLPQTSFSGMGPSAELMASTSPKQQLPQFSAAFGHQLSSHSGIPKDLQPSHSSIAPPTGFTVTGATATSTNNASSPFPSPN
UniProt Q53H82: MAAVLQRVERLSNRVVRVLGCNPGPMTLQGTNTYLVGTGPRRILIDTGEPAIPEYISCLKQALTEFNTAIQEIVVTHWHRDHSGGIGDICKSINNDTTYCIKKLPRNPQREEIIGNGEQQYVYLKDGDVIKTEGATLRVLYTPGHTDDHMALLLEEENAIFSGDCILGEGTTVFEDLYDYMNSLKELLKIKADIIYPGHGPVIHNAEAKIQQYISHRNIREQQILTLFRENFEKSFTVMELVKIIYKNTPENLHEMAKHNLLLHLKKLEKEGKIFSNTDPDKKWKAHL
UniProt Q569H4: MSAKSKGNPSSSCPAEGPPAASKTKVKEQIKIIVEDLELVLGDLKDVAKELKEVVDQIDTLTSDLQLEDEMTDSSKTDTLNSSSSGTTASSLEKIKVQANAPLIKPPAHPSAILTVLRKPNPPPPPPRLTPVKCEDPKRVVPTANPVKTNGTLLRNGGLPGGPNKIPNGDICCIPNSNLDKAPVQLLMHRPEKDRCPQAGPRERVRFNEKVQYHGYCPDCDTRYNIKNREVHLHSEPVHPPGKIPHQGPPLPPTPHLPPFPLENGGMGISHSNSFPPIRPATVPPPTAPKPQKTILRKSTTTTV
UniProt Q4G0J3: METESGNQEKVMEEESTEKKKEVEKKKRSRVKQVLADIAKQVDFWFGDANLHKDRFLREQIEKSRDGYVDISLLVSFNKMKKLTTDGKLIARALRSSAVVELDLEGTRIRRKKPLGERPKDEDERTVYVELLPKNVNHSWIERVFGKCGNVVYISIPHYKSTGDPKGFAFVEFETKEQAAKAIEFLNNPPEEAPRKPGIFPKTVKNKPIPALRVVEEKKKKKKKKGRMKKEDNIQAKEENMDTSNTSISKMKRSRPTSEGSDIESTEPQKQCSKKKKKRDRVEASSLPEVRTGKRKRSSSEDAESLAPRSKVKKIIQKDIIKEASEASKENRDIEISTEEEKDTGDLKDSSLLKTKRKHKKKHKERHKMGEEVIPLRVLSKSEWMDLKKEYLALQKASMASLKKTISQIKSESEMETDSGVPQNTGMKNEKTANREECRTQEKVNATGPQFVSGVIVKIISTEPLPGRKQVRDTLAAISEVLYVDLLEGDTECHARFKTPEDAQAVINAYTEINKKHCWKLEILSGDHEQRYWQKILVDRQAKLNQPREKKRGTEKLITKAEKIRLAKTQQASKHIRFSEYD

Compound in the assay: CN[C@@H]1C[C@H]2O[C@@](C)([C@@H]1OC)n1c3ccccc3c3c4c(c5c6ccccc6n2c5c31)C(=O)NC4 [staurosporine]
Kind of assay: log2 fold change of tryptic peptide abundance, ligand vs vehicle (limited proteolysis) (log2 ratio); higher = more trypsin-susceptible (destabilized). The settings on record: ligand concentration: 20 uM; sample: K562 cleared lysate; digestion: 4 min, 22 C (HT-PELSA RT4min, Orbitrap Astral).
As to “CROCC (peptide sequence: SLGEGAK, peptide start residue: 1204) (UniProt Q5TZA2)”, the log2 fold change worked out at 0.00532.

On to “RNF187 (peptide sequence: SLLQAVSELEK, peptide start residue: 213) (UniProt Q5TA31)”, for which the log2 fold change was -0.351.

As for “BRMS1L (peptide sequence: VKTEPPVKLEK, peptide start residue: 239) (UniProt Q5PSV4)”, the log2 fold change came to 0.022.

As for “ZNF318 (peptide sequence: IYELAVWDENKK, peptide start residue: 1953) (UniProt Q5VUA4)”, the log2 fold change is -0.437.

Regarding “UniProt Q4AE62 (peptide sequence: QEYLGNSLR, peptide start residue: 233)”, the log2 fold change came out at 0.208.

As to “AARS2 (peptide sequence: LVPSASVRPR, peptide start residue: 58) (UniProt Q5JTZ9)”, the log2 fold change is 0.339.

On to “PDE4DIP (peptide sequence: RQQLLLMLEGLVDER, peptide start residue: 856) (UniProt Q5VU43)”, for which the log2 fold change is 1.14.

For “DOCK11 (peptide sequence: LSKPGTAAELR, peptide start residue: 11) (UniProt Q5JSL3)”, the log2 fold change was 0.284.

With “PITRM1 (peptide sequence: IFSQHLQNR, peptide start residue: 216) (UniProt Q5JRX3)”, the log2 fold change was -0.818.

For the target “GPATCH4 (peptide sequence: EFTNHWWNELFNK, peptide start residue: 59) (UniProt Q5T3I0)”, the log2 fold change is -0.396.

Regarding “UniProt Q5JPI9 (peptide sequence: HKIPLDASVLDIGTGNGVFLVELAK, peptide start residue: 75)”, the log2 fold change is -0.141.

With “UniProt Q53EQ6 (peptide sequence: VLSDLTHLAALAYK, peptide start residue: 509)”, the log2 fold change came out at 0.403.

As for “CDCA8 (peptide sequence: LAQICSSIR, peptide start residue: 269) (UniProt Q53HL2)”, the log2 fold change was -0.175.

With “STXBP5 (peptide sequence: KLSLPTDLKPDLDVK, peptide start residue: 757) (UniProt Q5T5C0)”, the log2 fold change came to 0.107.

On to “UniProt Q53TQ3 (peptide sequence: ATAFSPHFSCISR, peptide start residue: 287)”, for which the log2 fold change was -0.318.

As to “LACTB2 (peptide sequence: SFTVMELVK, peptide start residue: 235) (UniProt Q53H82)”, the log2 fold change turned out to be 0.205.

Turning to “FILIP1L (peptide sequence: LIEETKR, peptide start residue: 539) (UniProt Q4L180)”, the log2 fold change was 0.717.

Turning to “RIF1 (peptide sequence: NVSQESLETKEEKPEETPK, peptide start residue: 1871) (UniProt Q5UIP0)”, the log2 fold change is -0.82.

With “TPRG1L (peptide sequence: QTLWPLSIHDPTRR, peptide start residue: 44) (UniProt Q5T0D9)”, the log2 fold change was 0.303.

Regarding “PRR16 (peptide sequence: ERVRFNEK, peptide start residue: 203) (UniProt Q569H4)”, the log2 fold change was 0.263.

Regarding “RARS2 (peptide sequence: KHFQQVFQMLK, peptide start residue: 352) (UniProt Q5T160)”, the log2 fold change came out at 0.199.

With “UniProt Q5T3J3 (peptide sequence: SPVLPSGHHLQIPAHAEVK, peptide start residue: 176)”, the log2 fold change is 0.276.

Turning to “CEP85L (peptide sequence: AQGKEPNLSLLLGIR, peptide start residue: 737) (UniProt Q5SZL2)”, the log2 fold change was found to be 0.373.

Regarding “UniProt Q5TYW1 (peptide sequence: IHTGEKPYECNECGR, peptide start residue: 383)”, the log2 fold change was 0.0762.

With “LARP7 (peptide sequence: NVNHSWIER, peptide start residue: 135) (UniProt Q4G0J3)”, the log2 fold change is -0.438.

Consider “ZFYVE27 (peptide sequence: SSMGATAPEAQR, peptide start residue: 385) (UniProt Q5T4F4)”, for which the log2 fold change worked out at 0.0182.

For the origin of these results see the supplement of paper PMC12819154, “High-throughput peptide-centric local stability assay extends protein–ligand identification to membrane proteins, tissues and bacteria” (Nature Structural & Molecular Biology, 2025).
